# Measurements reported in PubChem BioAssay AID602346 (Broad Institute, 2012).
# The whole screen tested about 340,000 compounds, of which about 1,200 (0.35%) were called active. The inconclusive results got no clear call from the source; some entries with a clear call stand among them for comparison. Rule as the data show it: active = inhibition above about 50% (passing the limit was not always enough); inconclusive = no clear call, values can overlap the other calls; inactive = below about 31%.
# Assay: blockers of Vif multimerization in cells – imaging, HEK293T, single point, primary screen (AID 602346)
# Conditions: Vif self-association by quenched fluorescence, 24 h, at 7.49 µM, hits give high values
row,SMILES,inhibition
1,COc1cc(/C=C/c2ccc(O)cc2)cc(OC)c1,inconclusive: 39.4%
2,Cc1cc(C)cc(NC(=O)c2cc(S(=O)(=O)N3CCCC3)cn2C)c1,inconclusive: 41.4%
3,COc1cccc(N(C(=O)c2csnn2)C(C(=O)NC2CCCC2)c2ccccc2)c1 (centres undefined),inconclusive: 26.1%
4,COc1ccc(CCC(C)NCc2ccc(C(F)(F)F)cc2)cc1 (centres undefined),inconclusive: 22.7%
5,Cc1c(C(=O)NCc2ccccn2)oc2ccc(S(=O)(=O)N3CCOCC3)cc12,active: 86.4%
6,C/C(=N\OCC(=O)OCC(=O)NC(=O)c1ccc(OC(F)F)cc1)c1ccc2c(c1)OCO2,inconclusive: 32%
7,O=C(CSc1nnnn1-c1ccc2c(c1)OCCO2)OC1CCCCC1,inconclusive: 34.3%
8,CN1[C@@H]2CC[C@H]1CC(OC(=O)c1c[nH]c3ccccc13)C2 (some centres undefined),inconclusive: 15.5%
9,c1csc(CNc2nc(-c3cccs3)nc3ccccc23)c1,inactive: -0.762%
10,CN(C)CCCn1cnc2c(c1=N)C(c1ccccc1)c1ccc3ccccc3c1O2 (centres undefined),inconclusive: 33.6%
11,O=C(C=Cc1ccccc1)c1cc(Br)ccc1O,inconclusive: 46.8%
12,Cc1ccc(S(=O)(=O)N2CCN(C(=O)COC(=O)/C=C/c3ccc(OC(F)F)cc3)CC2)cc1,inconclusive: 33.5%
13,COc1ccccc1NC(=O)c1ccc(C(=O)Nc2ccccc2OC)nc1,inconclusive: 39.4%
14,COc1ccc(NC(=O)c2ccccc2NS(=O)(=O)c2ccc(CNC(C)=O)cc2)c(OC)c1,inconclusive: 26.8%
15,CC1(CCOCc2ccccc2)NC(=O)NC1=O (centres undefined),inconclusive: 27.1%
16,Cc1cccc(NC(=O)CNC(=O)Cn2ncc(Cl)c(Cl)c2=O)c1C,active: 56.8%
17,CCn1nc(C)cc1C(=O)N1CCCC(C(=O)c2ccccc2SC)C1 (centres undefined),inactive: -6.9%
18,O=C1CCc2cc(NS(=O)(=O)c3cc(F)ccc3F)cc3c2N1CC3,inconclusive: 26.6%
19,CC(C)c1c(O)ccc2c1CC[C@H]1C(C)(C)CCC[C@]21C,inactive: 2.03%
20,COc1ccc(/C=N/N=C/c2ccc(OC)c(OC)c2)cc1OC,inconclusive: 44.2%
21,CN(C)S(=O)(=O)c1ccc(NC(=O)COC(=O)C2COc3ccccc3O2)cc1 (centres undefined),active: 67.4%
22,CCOc1cc(/C=C2\CN(CC)C/C(=C\c3ccc(O)c(OCC)c3)C2=O)ccc1O,inconclusive: 47.9%
23,O=C1CCC(C(=O)Nc2ccc(Cl)cc2)N1 (centres undefined),inactive: 5.31%

row,SMILES,inhibition
1,COc1cc(/C=C2\SC(N)=NC2=O)cc(Br)c1O,inconclusive: 34%
2,CC/C(=N/Nc1cccc(C)c1)c1cnnc(SC)n1,active: 81.7%
3,CCCCN(C(=O)c1cnc(C)cn1)c1c(N)n(CCC)c(=O)[nH]c1=O,inconclusive: 25.1%
4,O=[N+]([O-])c1ccc2nc(-c3ccc(Cl)cc3)n(OCc3ccccc3)c2c1,inactive: -13.2%
5,COc1cccc(OCc2cc(C(=O)N(C)Cc3nc4ccccc4[nH]3)no2)c1,inconclusive: 15.9%
6,CCCCc1cc(=O)oc2cc(OCC(=O)NCC3CCC(C(=O)O)CC3)ccc12 (centres undefined),inconclusive: 34%
7,C=C(C)n1c(=O)n(Cc2ccc(C)cc2)c2ccccc21,active: 69.2%
8,CCC(=O)Nc1ccc(-c2nnc(SCc3ccc(C(=O)Nc4nccs4)cc3)n2CC)cc1,active: 67.3%
9,CN(C)C(=O)CCc1ccc2c3c([nH]c2c1)[C@]1(C)[C@@H](C(=O)N2CCCCC2)C[C@H](CC(=O)NCCC2=CCCCC2)C(=O)N1CC3,active: 71.8%
10,CCOC(=O)C1CCN(C(=O)/C=C/c2ccc(S(=O)(=O)N3CCOCC3)cc2)CC1,inconclusive: 30.3%
11,COc1ccccc1C1C2=C(COC2=O)Nc2cc3c(cc21)OCO3 (centres undefined),active: 89.1%
12,CCn1c(C)nc2cc(C(=O)NN=C(C)c3ccc(C#N)cc3)ccc21,inactive: 0.905%
13,CCc1nnc(NC(=O)CSc2nnc(CNc3ccc(Cl)cc3)o2)s1,inconclusive: 30.2%
14,CCc1ccc(-n2nc3ccc(NC(=O)c4ccc5c(c4)OCO5)cc3n2)cc1,inconclusive: 21.5%
15,O=C(O)c1ccccc1OC(=O)C12CC3CC(CC(C3)C1)C2,inconclusive: 31.8%
16,COc1cc(Nc2nc3ccccc3n3nnnc23)cc(OC)c1OC,active: 50.2%
17,CC(=O)N/N=C(\C)C1COc2ccccc2O1 (centres undefined),inconclusive: 39.7%
18,O=c1[nH]c2ccc(NC(=S)NCc3ccccc3)cc2[nH]1,inconclusive: 25.5%
19,CC1Cc2ccccc2N1CC(=O)Nc1ccc2c(c1)OCO2 (centres undefined),inconclusive: 37.6%
20,Cc1cnc(NC(=O)CN2CCN(c3ccccn3)CC2)s1,active: 114%
21,COc1ccc(CNc2ccc(-c3ccccc3OC)nn2)cc1,inconclusive: 26.2%
22,CCCCOC(=O)CSC1=C(C#N)C(c2ccc3c(c2)OCO3)CC(=O)N1 (centres undefined),inconclusive: 34.1%
23,O=C(CNS(=O)(=O)c1ccc(F)cc1)N1CCOCC1,inconclusive: 21.4%

# Laid out differently: entries from further up
row | SMILES | inhibition
10 | CCOC(=O)C1CCN(C(=O)/C=C/c2ccc(S(=O)(=O)N3CCOCC3)cc2)CC1 | inconclusive: 30.3%
11 | COc1ccccc1C1C2=C(COC2=O)Nc2cc3c(cc21)OCO3 (centres undefined) | active: 89.1%

# Part of the list above, tab-delimited.
row	SMILES	inhibition
13	COc1ccccc1NC(=O)c1ccc(C(=O)Nc2ccccc2OC)nc1	inconclusive: 39.4%
14	COc1ccc(NC(=O)c2ccccc2NS(=O)(=O)c2ccc(CNC(C)=O)cc2)c(OC)c1	inconclusive: 26.8%
15	CC1(CCOCc2ccccc2)NC(=O)NC1=O (centres undefined)	inconclusive: 27.1%

# Remaining list, next part:

row,SMILES,inhibition
1,CC(C)(C)C(=O)OCc1nc(-c2ccc(O)c(O)c2)cs1,inconclusive: 37.7%
2,COc1cc(OC)nc(Oc2ccccc2C=O)n1,inactive: 6.45%
3,C=C(C(=O)c1ccccc1)C(C)C(=C)C(=O)c1ccccc1,active: 66.8%
4,COc1ccc(OCc2nnnn2-c2ccccc2)cc1,inactive: -9.32%
5,COc1ccc(N=Cc2sc(O)c3ccccc23)cc1,inactive: 4.47%
6,COc1ccc(-c2ccc(C(=O)NCc3ccccc3)c3occc23)c(C)c1,inconclusive: 26.1%
7,Clc1cccc(/C=N/Nc2nnc(Cl)c3ccccc23)c1,inactive: 2.37%
8,C/C(=N\NC(=O)c1cccc(S(=O)(=O)N2CCCC2)c1)c1ccccc1F,inconclusive: 27.5%
9,c1ccc(OCc2nc(-c3ccncc3)no2)cc1,inactive: 5.06%
10,Cc1ccc(Cn2nnc3c(=O)n(CC(=O)c4ccccc4)cnc32)cc1,inconclusive: 37.7%
11,COc1ccc(Oc2nc3c(c(=O)n(C)c(=O)n3C)n2Cc2cccc(OC)c2)cc1,inconclusive: 42.2%
12,CC(C)C(C(=O)O)N1C(=O)C2C3CCC(C3)C2C1=O (centres undefined),inconclusive: 27.6%
13,Cc1ccc(S(=O)(=O)c2nc(-c3ccccc3Cl)oc2N2CCN(C)CC2)cc1,inconclusive: 38.5%
14,CCOC(=O)C1=C(C)N(CCO)C(=O)NC1c1ccccc1 (centres undefined),active: 63.2%
15,C=C[C@@]1(C)CC(=O)[C@]2(O)[C@@]3(C)[C@@H](O)CCC(C)(C)[C@@H]3[C@H](O)[C@H](OC(C)=O)[C@@]2(C)O1,active: 75.5%
16,CCN(c1ccccc1)S(=O)(=O)c1ccc(NN)nc1,inconclusive: 26.1%
17,CCC1=NN(C(=O)CCc2ccc3c(c2)OCO3)C(O)(C(F)(F)F)C1 (centres undefined),inconclusive: 32.6%
18,CCc1ccc(NC(=O)c2ccc(S(=O)(=O)NCc3cccnc3)cc2)cc1,inconclusive: 37.7%
19,Cc1noc(C)c1COc1cccc(C(=O)Nc2ccccc2)c1,inconclusive: 32.6%
20,O=C(NCc1ccccc1)c1ccc2c(=O)n(CC3CCCO3)c(=S)[nH]c2c1 (centres undefined),inconclusive: 48.6%
21,O=C(CCN1C(=O)C2CC=C(Cl)CC2C1=O)NC1CCCCC1 (centres undefined),inconclusive: 25.7%
22,CCN(CC)CCNC(=O)C12CC3CC(C)(CC(C)(C3)C1)C2,active: 68.4%
23,COCCC(=O)N1CCc2ccc(NC(=O)c3ccc(C(F)(F)F)cc3)cc2C1,inactive: -7.01%

row,SMILES,inhibition
1,Cc1ccsc1C(=O)OCC(=O)c1ccc(OC(F)F)cc1,inconclusive: 28%
2,O=C(CCCCCCC(=O)Nc1ccccc1)NO,active: 152%
3,CC1(c2nnc(-c3ccc(F)cc3)o2)CC(c2cccnc2)=NO1 (centres undefined),inconclusive: 30.5%
4,O=C(/C=C/c1ccccc1Cl)c1ccc(O)cc1,inactive: -6.58%
5,CCC(C)Sc1nc2c(cnn2-c2ccccc2)c(=O)[nH]1 (centres undefined),inconclusive: 40%
6,CC(=O)Nc1ccc(S(=O)(=O)N2CCC3(CC2)CC(=O)c2ccccc2O3)cc1,inconclusive: 27.5%
7,Cc1ccc(S(=O)(=O)NC(=O)Nn2c(C)nnc2C)cc1,inconclusive: 46.4%
8,COC(=O)[C@H]1[C@@H](C)N(Cc2ccccc2)C(=O)N[C@H]1c1ccccc1,inconclusive: 37.1%
9,Cc1ccccc1Oc1nnc(-c2cccs2)c2ccccc12,inconclusive: 38.6%
10,COc1ccc(N2CCN(S(=O)(=O)c3c(C)n(C)c(=O)n(C)c3=O)CC2)cc1,inactive: 5.06%
11,Cc1cc(Cl)c2oc(C(=O)N3CCOCC3)c(C)c2c1,inactive: 14%
12,CC1=C(C(N)=O)C(c2ccccc2)n2nc(-c3cccs3)nc2N1 (centres undefined),inconclusive: 34.5%
13,CC(=O)c1c(C)[nH]c(C(=O)/C(C#N)=C/c2cccc(C)c2)c1C,inconclusive: 31.4%
14,CCOc1ccc(NC(=O)CSc2ccc(-c3cccnc3)nn2)cc1,inactive: -4.5%
15,Cc1ccccc1C(=O)Nc1cccc(C(=O)Nc2ccccc2C(=O)O)c1,inconclusive: 17.6%
16,COc1cc(C(=O)N2CCN(C/C=C/c3ccccc3)CC2)cc(OC)c1OC,inconclusive: 27.3%
17,O=C(/C=C/c1ccc(OC2CSC2)cc1)c1ccccc1,inactive: -5.27%
18,CCN1C(=O)[C@@H]2[C@@H](c3ccc(-c4cccc(Cl)c4)c(OC)c3)N3CCCC[C@@]3(C(=O)OC)[C@@H]2C1=O,inactive: 0.57%
19,O=C(Nn1c(-c2ccccc2)nc2ccccc2c1=O)c1ccc([N+](=O)[O-])cc1,inconclusive: 46.5%
20,Cc1cccc(C2=NN(c3ccc(Br)cc3)[C@@H](C(=O)N3CCOC3=O)[C@@H]2C)c1,inconclusive: 44.7%
